These are yes or no findings as the source states them, for the method shown. Binding seen in cells or lysates may run through a third protein. Some entries that bind do so weakly or less than the wild type. Sequences can lack the tags named with a protein.
Target: FLAG-tagged LENG8 (Leukocyte Receptor Cluster Member 8) (human) (UniProt Q96PV6)
Assay: co-IP

Amino acid sequences for entries named in this document (tags omitted). A change or cut given only in a name is not applied to a line headed by its entry. Chains listed by the source or under a name are the forms on record and can include a tag or linker.
UniProt Q96PV6: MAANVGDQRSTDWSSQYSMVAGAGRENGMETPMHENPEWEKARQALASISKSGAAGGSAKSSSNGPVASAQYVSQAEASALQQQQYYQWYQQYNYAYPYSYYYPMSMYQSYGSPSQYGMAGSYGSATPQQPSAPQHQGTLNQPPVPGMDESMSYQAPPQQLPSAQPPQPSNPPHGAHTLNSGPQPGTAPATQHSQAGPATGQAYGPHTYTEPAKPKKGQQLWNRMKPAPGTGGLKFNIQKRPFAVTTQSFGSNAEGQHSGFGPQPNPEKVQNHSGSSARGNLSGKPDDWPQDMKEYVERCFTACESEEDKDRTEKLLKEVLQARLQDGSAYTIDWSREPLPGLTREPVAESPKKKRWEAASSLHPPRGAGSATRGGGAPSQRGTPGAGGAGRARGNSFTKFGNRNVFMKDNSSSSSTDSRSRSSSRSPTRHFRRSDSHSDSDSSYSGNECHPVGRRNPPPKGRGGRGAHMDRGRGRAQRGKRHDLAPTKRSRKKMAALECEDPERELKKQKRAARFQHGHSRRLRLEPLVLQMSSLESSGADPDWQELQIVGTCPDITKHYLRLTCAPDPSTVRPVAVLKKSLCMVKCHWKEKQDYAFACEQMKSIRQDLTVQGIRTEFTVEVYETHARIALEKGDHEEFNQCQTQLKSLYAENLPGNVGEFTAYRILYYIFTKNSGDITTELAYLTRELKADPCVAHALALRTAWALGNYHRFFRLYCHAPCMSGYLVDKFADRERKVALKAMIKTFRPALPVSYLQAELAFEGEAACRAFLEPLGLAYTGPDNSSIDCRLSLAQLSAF
HA-tagged THOC6 (Q86W42-3, form named): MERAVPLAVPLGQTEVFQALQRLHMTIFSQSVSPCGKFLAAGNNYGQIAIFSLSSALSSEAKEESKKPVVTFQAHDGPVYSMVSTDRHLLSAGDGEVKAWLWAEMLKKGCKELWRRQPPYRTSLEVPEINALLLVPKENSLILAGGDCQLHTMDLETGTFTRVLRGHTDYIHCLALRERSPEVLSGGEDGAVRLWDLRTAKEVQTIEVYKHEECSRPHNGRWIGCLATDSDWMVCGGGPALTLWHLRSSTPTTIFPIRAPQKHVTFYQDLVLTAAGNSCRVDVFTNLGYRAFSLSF

Molecule: HA-tagged THOC6 (from UniProt Q86W42-3 1-296)
- binding: binds

B1: HA-tagged THOC1 (protein, UniProt Q96FV9 1-657)
chain: MSPTPPLFSLPEARTRFTKSTREALNNKNIKPLLSTFSQVPGSENEKKCTLDQAFRGILEEEIINHSSCENVLAIISLAIGGVTEGICTASTPFVLLGDVLDCLPLDQCDTIFTFVEKNVATWKSNTFYSAGKNYLLRMCNDLLRRLSKSQNTVFCGRIQLFLARLFPLSEKSGLNLQSQFNLENVTVFNTNEQESTLGQKHTEDREEGMDVEEGEMGDEEAPTTCSIPIDYNLYRKFWSLQDYFRNPVQCYEKISWKTFLKYSEEVLAVFKSYKLDDTQASRKKMEELKTGGEHVYFAKFLTSEKLMDLQLSDSNFRRHILLQYLILFQYLKGQVKFKSSNYVLTDEQSLWIEDTTKSVYQLLSENPPDGERFSKMVEHILNTEENWNSWKNEGCPSFVKERTSDTKPTRIIRKRTAPEDFLGKGPTKKILMGNEELTRLWNLCPDNMEACKSETREHMPTLEEFFEEAIEQADPENMVENEYKAVNNSNYGWRALRLLARRSPHFFQPTNQQFKSLPEYLENMVIKLAKELPPPSEEIKTGEDEDEEDNDALLKENESPDVRRDKPVTGEQIEVFANKLGEQWKILAPYLEMKDSEIRQIECDSEDMKMRAKQLLVAWQDQEGVHATPENLINALNKSGLSDLAESLTNDNETNS
- binding: binds

B2: HA-tagged THOC3 (protein, UniProt Q96J01-1 1-351)
chain: MAVPAAAMGPSALGQSGPGSMAPWCSVSSGPSRYVLGMQELFRGHSKTREFLAHSAKVHSVAWSCDGRRLASGSFDKTASVFLLEKDRLVKENNYRGHGDSVDQLCWHPSNPDLFVTASGDKTIRIWDVRTTKCIATVNTKGENINICWSPDGQTIAVGNKDDVVTFIDAKTHRSKAEEQFKFEVNEISWNNDNNMFFLTNGNGCINILSYPELKPVQSINAHPSNCICIKFDPMGKYFATGSADALVSLWDVDELVCVRCFSRLDWPVRTLSFSHDGKMLASASEDHFIDIAEVETGDKLWEVQCESPTFTVAWHPKRPLLAFACDDKDGKYDSSREAGTVKLFGLPNDS
- binding: no binding

B3: HA-tagged THOC5 (protein, UniProt Q13769 1-683)
chain: MSSESSKKRKPKVIRSDGAPAEGKRNRSDTEQEGKYYSEEAEVDLRDPGRDYELYKYTCQELQRLMAEIQDLKSRGGKDVAIEIEERRIQSCVHFMTLKKLNRLAHIRLKKGRDQTHEAKQKVDAYHLQLQNLLYEVMHLQKEITKCLEFKSKHEEIDLVSLEEFYKEAPPDISKAEVTMGDPHQQTLARLDWELEQRKRLAEKYRECLSNKEKILKEIEVKKEYLSSLQPRLNSIMQASLPVQEYLFMPFDQAHKQYETARHLPPPLYVLFVQATAYGQACDKTLSVAIEGSVDEAKALFKPPEDSQDDESDSDAEEEQTTKRRRPTLGVQLDDKRKEMLKRHPLSVMLDLKCKDDSVLHLTFYYLMNLNIMTVKAKVTTAMELITPISAGDLLSPDSVLSCLYPGDHGKKTPNPANQYQFDKVGILTLSDYVLELGHPYLWVQKLGGLHFPKEQPQQTVIADHSLSASHMETTMKLLKTRVQSRLALHKQFASLEHGIVPVTSDCQYLFPAKVVSRLVKWVTVAHEDYMELHFTKDIVDAGLAGDTNLYYMALIERGTAKLQAAVVLNPGYSSIPPVFQLCLNWKGEKTNSNDDNIRAMEGEVNVCYKELCGPWPSHQLLTNQLQRLCVLLDVYLETESHDDSVEGPKEFPQEKMCLRLFRGPSRMKPFKYNHPQGFFSHR
- binding: binds

B4: HA-tagged THOC7 (protein, UniProt Q6I9Y2 1-204)
chain: MGAVTDDEVIRKRLLIDGDGAGDDRRINLLVKSFIKWCNSGSQEEGYSQYQRMLSTLSQCEFSMGKTLLVYDMNLREMENYEKIYKEIECSIAGAHEKIAECKKQILQAKRIRKNRQEYDALAKVIQHHPDRHETLKELEALGKELEHLSHIKESVEDKLELRRKQFHVLLSTIHELQQTLENDEKLSEVEEAQEASMETDPKP
- binding: no binding

Source: paper doi:10.1101/2021.07.17.452750
